The source of these data is PMC9182567.

The test concerns the target GFP-SteD (wild type) (Salmonella enterica serovar Typhimurium (14028s)). Kind of test: co-IP; Mel Juso cells expressing GFP-tagged effectors, crosslinked with 2 mM DSP for 2 h at 4°C before lysis (5% glycerol, 0.5% Triton X-100, 1 mM PMSF in PBS); GFP-Trap beads 2 h at 4°C, four washes; immunoblot of endogenous partners (AP1 by its γ subunit).

These are yes or no findings as the source states them, for the method shown. Binding seen in cells or lysates may run through a third protein. A result given as binding can be weak or reduced; the word gives no strength.

B1: TMEM127 (protein, UniProt O75204 1-238)
chain: MYAPGGAGLPGGRRRRSPGGSALPKQPERSLASALPGALSITALCTALAEPAWLHIHGGTCSRQELGVSDVLGYVHPDLLKDFCMNPQTVLLLRVIAAFCFLGILCSLSAFLLDVFGPKHPALKITRRYAFAHILTVLQCATVIGFSYWASELILAQQQQHKKYHGSQVYVTFAVSFYLVAGAGGASILATAANLLRHYPTEEEEQALELLSEMEENEPYPAEYEVINQFQPPPAYTP
Turning to B1, the binding entry was “binds”.
